Patent EP0393786B1 (SCLAVO S.p.A., priority 1989, dated 1990)

Test: general procedure: solution-phase peptide synthesis; DCC/HOBt
Conditions: acetate

Substance	step yield (late stage modification step)	step yield (coupling step)
CH₃COOH.H-Arg-Lys-gAsp-(R,S)mVal-Tyr-OH	56%	–
Z-Lys(Boc)-gAsp(OBu^t)-(R,S)mVal-Tyr(Bu^t)OBu^t	–	71%
